Data on one molecule can be found in PMC11658772.

The test addresses T1, MSL1^3S-3xHA (K3S R4S K6S) (Drosophila melanogaster) (UniProt P50535).
T1 sequence: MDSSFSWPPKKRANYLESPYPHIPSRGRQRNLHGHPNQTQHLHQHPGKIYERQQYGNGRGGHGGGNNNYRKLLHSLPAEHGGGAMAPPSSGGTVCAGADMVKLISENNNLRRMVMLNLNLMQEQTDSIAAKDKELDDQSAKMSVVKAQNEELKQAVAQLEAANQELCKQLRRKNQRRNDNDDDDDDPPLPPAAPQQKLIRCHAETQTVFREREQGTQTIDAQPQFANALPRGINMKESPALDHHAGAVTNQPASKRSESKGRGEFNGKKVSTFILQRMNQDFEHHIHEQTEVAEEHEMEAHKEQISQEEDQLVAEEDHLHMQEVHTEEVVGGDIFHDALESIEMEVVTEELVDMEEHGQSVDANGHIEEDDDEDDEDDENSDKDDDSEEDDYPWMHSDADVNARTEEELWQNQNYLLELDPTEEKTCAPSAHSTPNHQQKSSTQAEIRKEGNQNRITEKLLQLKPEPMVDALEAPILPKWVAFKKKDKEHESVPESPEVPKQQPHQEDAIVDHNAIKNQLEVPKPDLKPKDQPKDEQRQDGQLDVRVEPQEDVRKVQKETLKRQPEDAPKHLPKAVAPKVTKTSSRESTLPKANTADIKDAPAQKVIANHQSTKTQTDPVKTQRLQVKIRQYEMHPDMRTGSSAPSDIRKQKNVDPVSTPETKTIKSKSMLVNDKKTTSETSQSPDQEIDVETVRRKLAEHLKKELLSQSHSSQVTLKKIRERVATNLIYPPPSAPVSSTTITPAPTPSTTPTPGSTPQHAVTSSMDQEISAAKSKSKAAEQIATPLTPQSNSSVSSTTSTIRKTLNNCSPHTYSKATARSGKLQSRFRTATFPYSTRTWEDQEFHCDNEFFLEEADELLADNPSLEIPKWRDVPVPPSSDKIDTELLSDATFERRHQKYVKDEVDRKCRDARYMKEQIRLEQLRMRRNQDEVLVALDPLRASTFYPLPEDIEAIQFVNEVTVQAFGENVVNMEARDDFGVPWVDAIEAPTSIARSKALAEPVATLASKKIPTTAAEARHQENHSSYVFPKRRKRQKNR
The test is described as follows: co-IP; Drosophila S2 cells co-transfected with MSL1*-3xHA and MSL2-3xFLAG, 48 hr; extract made with 420 mM NaCl; immunoprecipitation with anti-FLAG, anti-HA or mouse IgG (negative control) magnetic beads in buffer-150 (20 mM Tris-HCl pH 7.4, 150 mM NaCl, 10 mM MgCl2, 0.1% NP-40), overnight at 4 °C; immunoblot with anti-FLAG-HRP. (In general: A western blot detects proteins with antibodies after separation by electrophoresis.)

Results are given in words; binding and its absence hold for the method and conditions named. Binding seen in cells or lysates may run through a third protein. Some entries that bind do so weakly or less than the wild type. Where a sequence is shown, tags or fusion partners need not be part of it.

B1: MSL2-3xFLAG (protein, UniProt P50534 1-773)
chain: MAQTAYLKVTRIAMRSASNLSKRRVEELNSGLGELRQLLSCVVCCQLLVDPYSPKGKRCQHNVCRLCLRGKKHLFPSCTQCEGCSDFKTYEENRMMAAQLLCYKTLCVHLLHSALFGELAGMRPQVARELVPRIKLPPKTTQEFIREGSNISDTFDIFLPQPDLPFLKDMPTSLPAETPPTSAVTTPELPYDHHLNISDIEAEAAATAEQGHFSPLPLLPTGSRMGMLSHAGQIVIATESSESGFMDQAWTDQVDLSGTVSVSKYTNSGNNFAVSYVMPTSATTKFDPQELQIGQVVQMADSTQLAVLAAVEETVETSTQLTVLSTTVEETVETSTQLEVLTSAEEPNEISDQLANLQVEESDEALVEETVEEAEGTSIPSEVVAEHMEEDQHLDVHTSQSPTQTEMEEAVEEHVATKTQLGHVQTELQDAESLQKDFEDAKAAAEEAKEKEKDLHAISAELQKEDSDEPTLKRKRTRTLKASQAAKIEPVPSEVKTKVQSGKGALRRIRGKDKEEKVKPPKPKCRCGISGSSNTLTTCRNSRCPCYKSYNSCAGCHCVCCKNPHKEDYVESDEDDDLEDFEMPKDVPEPMTQSEEPVVAEPRQEENSMAPPDSSAPISLVPLNNLQQSQHPLVLVQNEKGEYQGFNIFQGSKPLDPVTVGFTIRVQLQHTDGFGSLPQYAYIMPTIDPPNPPAPSLSPPPPPAPDREVIEPPAKKFRTSRTRRGRANFSALDTVDELVSGGSRSNSAAGDRSSATDNAHSLFEEIMSGSDDL
Take B1: the binding entry is “binds”.
